These results are taken from paper PMC6180346, “Two Faces of CwlM, an Essential PknB Substrate, in Mycobacterium tuberculosis” (Cell Reports, 2018).

By UniProt entry, the sequences of proteins in these tests, tags left out.
UniProt L7N653: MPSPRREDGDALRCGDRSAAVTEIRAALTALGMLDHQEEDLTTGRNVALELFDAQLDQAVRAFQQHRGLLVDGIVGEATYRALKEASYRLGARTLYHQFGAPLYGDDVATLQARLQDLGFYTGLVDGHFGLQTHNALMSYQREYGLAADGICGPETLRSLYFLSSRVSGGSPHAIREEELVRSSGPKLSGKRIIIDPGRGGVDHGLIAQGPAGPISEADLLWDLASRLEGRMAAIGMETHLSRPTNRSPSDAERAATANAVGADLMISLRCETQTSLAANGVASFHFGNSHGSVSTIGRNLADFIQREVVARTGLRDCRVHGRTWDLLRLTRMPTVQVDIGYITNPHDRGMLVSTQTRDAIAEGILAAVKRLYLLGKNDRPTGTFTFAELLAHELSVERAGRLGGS

Results are given in words; binding and its absence hold for the method and conditions named. In cells and extracts the contact can be indirect. A yes stands for co-enrichment or nearness to the bait. Other partners may have been found.

The assay addresses CwlM, endogenous, membrane fraction of M. tuberculosis (non-phosphorylated form) (M. tuberculosis (endogenous in M. tuberculosis)) (UniProt L7N653). In words: affinity purification with mass spectrometry.

B1: MurJ, endogenous (protein, UniProt P9WJK3 1-1184)
chain: MRPSPGEVPTASQRQPELSDAALVSHSWAMAFATLISRITGFARIVLLAAILGAALASSFSVANQLPNLVAALVLEATFTAIFVPVLARAEQDDPDGGAAFVRRLVTLATTLLLGATTLSVLAAPLLVRLMLGTNPQVNEPLTTAFAYLLLPQVLVYGLSSVFMAILNTRNVFGPPAWAPVVNNVVAIATLAVYLAVPGELSVDPVRMGNAKLLVLGIGTTAGVFAQTAVLLVAIRREHISLRPLWGIDQRLKRFGAMAAAMVLYVLISQLGLVVGNRIASTAAASGPAIYNYTWLVLMLPFGMIGVTVLTVVMPRLSRNAAADDTPAVLADLSLATRLTMITLIPTVAFMTVGGPAIGSALFAYGNFGDVDAGYLGAAIALSAFTLIPYALVLLQLRVFYAREQPWTPITIIVVITGVKILGSLLAPHITGDPQLVAAYLGLANGLGFLAGTIVGYYILRRALRPDGGQLIGVGEARTVLVTVAASLLAGLLAHVADRLLGLSELTAHAGSVGSLLRLSVLALIMLPILAAVTLCARVPEARAALDAVRARIRSRRLKTGPQTQNVLDQSSRPGPVTYPERRRLAPPRGKSVVHEPIRRRPPEQVARAGRAKGPEVIDRPSENASFGAASGAELPRPVADELQLDAPAGRDPGPVSRPHPSDLQNGDLPADAARGPIAFDALREPDRESSAPPDDVQLVPGARIANGRYRLLIFHGGVPPLQFWQALDTALDRQVALTFVDPQGVLPDDVLQETLSRTLRLSRIDKPGVARVLDVVHTRAGGLVVAEWIRGGSLQEVADTSPSPVGAIRAMQSLAAAADAAHRAGVALSIDHPSRVRVSIDGDVVLAYPATMPDANPQDDIRGIGASLYALLVNRWPLPEAGVRSGLAPAERDTAGQPIEPADIDRDIPFQISAVAARSVQGDGGIRSASTLLNLMQQATAVADRTEVLGPIDEAPVSAAPRTSAPNSETYTRRRRNLLIGIGAGAAVLMVALLVLASVLSRIFGDVSGGLNKDELGLNAPTASTSAASSAPPGSVVKPTKVTVFSPDGGADNPGEADLAIDGNPATSWKTDIYTDPVPFPSFKNGVGLMLQLPQATVVGTVAIDVASTGTKVEIRSASTPTPATLEDTAVLTSATALRPGHNTISVEAAAPTSNLLVWISTLGTTDGKSQADISEITIYAAS
In the case of B1, the binding result is reported as “binds”.

B2: CwsA, endogenous (protein, UniProt P9WJF3 1-145)
chain: MSEQVETRLTPRERLTRGLAYSAVGPVDVTRGLLELGVGLGLQSARSTAAGLRRRYREGRLAREVAAAQETLAQELTAAQDVVANLPQALQDARTQRRSKHHLWIFAGIAAAILAGGAVAFSIVRRSSRPEPSPRPPSVEVQPRS
On to B2, for which the binding entry is reported as “binds”.
